3 molecules from paper doi:10.1101/2021.05.17.442671 can be followed below.

Amino acid sequences for entries named in this document (tags omitted).
UniProt Q1JPP8: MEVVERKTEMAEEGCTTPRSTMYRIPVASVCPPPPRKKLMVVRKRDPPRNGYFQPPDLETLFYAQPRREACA

Results are given in words; binding and its absence hold for the method and conditions named. Some results given as binding are weak or reduced against the parent protein; the word gives no strength.

B1: CYCD7;1 (protein, UniProt Q9LZM0 1-341)
chain: MDNLLCEESWPASPLTPEPLPNFRHRSHDNDVVKMYPEIDAATMEEAIAMDLEKELCFNNHGDKFVEFFVSKKLTDYRFHAFQWLIQTRSRLNLSYETVFSAANCFDRFVYMTCCDEWTNWMVELVAVTSLSIASKFNEVTTPLLEELEMEGLTHMFHVNTVAQMELIILKALEWRVNAVTSYTFSQTLVSKIGMVGDHMIMNRITNHLLDVICDLKMLQYPPSVVATAAIWILMEDKVCRESIMNLFEQNHKEKIVKCVDGMKNRDIDHQSSRRRYSEGRSILSLLQRGDVMNMNGDYNVEDLSKIFQIFRYEKKKRDRGNHQDNIRPAKRMTIEMSNYI
B2: CYCD3;1 (protein, UniProt P42753 1-376)
chain: MAIRKEEESREEQSNSFLLDALYCEEEKWDDEGEEVEENSSLSSSSSPFVVLQQDLFWEDEDLVTLFSKEEEQGLSCLDDVYLSTDRKEAVGWILRVNAHYGFSTLAAVLAITYLDKFICSYSLQRDKPWMLQLVSVACLSLAAKVEETQVPLLLDFQVEETKYVFEAKTIQRMELLILSTLEWKMHLITPISFVDHIIRRLGLKNNAHWDFLNKCHRLLLSVISDSRFVGYLPSVVAAATMMRIIEQVDPFDPLSYQTNLLGVLNLTKEKVKTCYDLILQLPVDRIGLQIQIQSSKKRKSHDSSSSLNSPSCVIDANPFNSDESSNDSWSASSCNPPTSSSSPQQQPPLKKMRGAEENEKKKPILHLPWAIVATP
B3: CYCD5;1 (protein, UniProt Q2V3B2 1-323)
chain: MGEPKDSLALFLCHESESSLNEDDDETIERSDKQEPHFTTTIDDEDYVADLVLKENLRFETLPSKTTSSSDRLIAIDWILTTRTRFGFQHQTAYIAISYFDLFLHKRFIGLQKDETWAMRLLSVACLSLAAKMEERIVPGLSQYPQDHDFVFKPDVIRKTELLILSTLDWKMNLITPFHYFNYFLAKISQDNHSVSKDLVLLRSSDSLLALTKEISFTEYRQFVVAAVTTLLASSSTSSDIRLTREEIANKFGSISWWTSNENENVYLCYQRTLEIEERKHMTPPPEIAVSREPPASGSGAKRRLSFDDSDQSSPPAKRMRRL

The target of this assay is SIAMESE-RELATED4 (SMR4) (Arabidopsis) (UniProt Q1JPP8). As to the kind of experiment: two-hybrid.
For B1, the binding result is listed as “binds”.
Regarding B2, the binding result was “binds”.
The result for B3 reads “no binding”.
